Test results taken from PMC1287507.
Results are given in words; binding and its absence hold for the method and conditions named. In cells and extracts the contact can be indirect.

Amino acid sequences for entries named in this document (tags omitted).
UniProt O55143: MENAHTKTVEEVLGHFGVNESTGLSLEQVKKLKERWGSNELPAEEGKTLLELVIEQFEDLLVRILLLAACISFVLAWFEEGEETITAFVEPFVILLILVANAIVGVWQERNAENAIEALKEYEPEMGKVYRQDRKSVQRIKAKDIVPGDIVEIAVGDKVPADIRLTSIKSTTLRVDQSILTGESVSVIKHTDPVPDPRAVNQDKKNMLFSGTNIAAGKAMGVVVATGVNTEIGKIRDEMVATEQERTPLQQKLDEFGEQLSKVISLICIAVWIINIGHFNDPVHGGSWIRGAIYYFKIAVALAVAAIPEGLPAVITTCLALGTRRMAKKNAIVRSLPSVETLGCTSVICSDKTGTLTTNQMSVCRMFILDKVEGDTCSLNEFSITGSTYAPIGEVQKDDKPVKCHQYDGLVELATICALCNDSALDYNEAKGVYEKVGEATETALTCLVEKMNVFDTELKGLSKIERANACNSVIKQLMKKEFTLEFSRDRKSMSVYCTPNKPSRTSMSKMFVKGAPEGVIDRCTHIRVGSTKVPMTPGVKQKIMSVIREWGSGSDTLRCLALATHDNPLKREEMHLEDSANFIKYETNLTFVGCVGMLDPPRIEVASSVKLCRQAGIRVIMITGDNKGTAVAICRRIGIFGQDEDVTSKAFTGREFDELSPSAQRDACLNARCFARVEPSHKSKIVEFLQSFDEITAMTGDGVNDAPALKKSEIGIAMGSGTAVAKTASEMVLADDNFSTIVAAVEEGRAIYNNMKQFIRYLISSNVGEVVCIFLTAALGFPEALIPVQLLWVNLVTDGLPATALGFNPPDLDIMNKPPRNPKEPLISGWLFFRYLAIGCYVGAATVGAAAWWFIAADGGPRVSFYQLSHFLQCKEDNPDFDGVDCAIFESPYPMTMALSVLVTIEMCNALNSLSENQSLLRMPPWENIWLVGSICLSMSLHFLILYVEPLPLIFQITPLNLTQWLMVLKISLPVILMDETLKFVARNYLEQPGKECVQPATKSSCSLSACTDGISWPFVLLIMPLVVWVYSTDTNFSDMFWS

What was measured:
Test in all cases: co-IP; detergent-soluble extracts (1.5% Triton X-100, 0.75% deoxycholate; 100,000g supernatant) of adult mouse heart; immunoprecipitation with antibody to each protein, immunoblot of associated proteins
[1] = biological target: SR Ca^2+ ATPase (SERCA2) (endogenous, mouse heart) (mouse (endogenous in mouse heart)) (UniProt O55143)
[2] = biological target: Na/K ATPase alpha 2 isoform (endogenous, mouse heart) (mouse (endogenous in mouse heart)) (UniProt Q6PIE5)
[3] = biological target: Na/Ca exchanger 1 (endogenous, mouse) (mouse (endogenous in mouse heart and brain)) (UniProt P70414)

| binding [1] | binding [2] | binding [3] | Substance |
| --- | --- | --- | --- |
| no binding | – | – | Na/K ATPase alpha 2 isoform (endogenous, mouse heart) (from UniProt Q6PIE5 1-1020) |
| – | no binding | no binding | SR Ca^2+ ATPase (SERCA2) (endogenous, mouse heart) (from UniProt O55143 1-1044) |
| no binding | – | – | Na/Ca exchanger 1 (endogenous, mouse) (from UniProt P70414 33-970) |
